# Percent effect of library compounds

Amino acid sequences for entries named in this document (tags omitted). Residues count along the entry.
UniProt P9WNZ1, whole entry: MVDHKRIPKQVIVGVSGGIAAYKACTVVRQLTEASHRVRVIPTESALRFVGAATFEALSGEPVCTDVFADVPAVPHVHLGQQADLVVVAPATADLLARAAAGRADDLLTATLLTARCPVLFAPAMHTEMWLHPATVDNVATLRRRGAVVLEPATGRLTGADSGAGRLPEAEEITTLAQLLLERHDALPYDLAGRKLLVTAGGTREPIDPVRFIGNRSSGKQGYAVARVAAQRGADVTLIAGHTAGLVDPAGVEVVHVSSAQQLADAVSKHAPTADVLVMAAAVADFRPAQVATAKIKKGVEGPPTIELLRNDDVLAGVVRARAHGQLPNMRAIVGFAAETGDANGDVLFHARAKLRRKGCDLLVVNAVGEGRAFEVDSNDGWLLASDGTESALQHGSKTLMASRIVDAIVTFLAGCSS
UniProt Q8IDJ8, 1-583: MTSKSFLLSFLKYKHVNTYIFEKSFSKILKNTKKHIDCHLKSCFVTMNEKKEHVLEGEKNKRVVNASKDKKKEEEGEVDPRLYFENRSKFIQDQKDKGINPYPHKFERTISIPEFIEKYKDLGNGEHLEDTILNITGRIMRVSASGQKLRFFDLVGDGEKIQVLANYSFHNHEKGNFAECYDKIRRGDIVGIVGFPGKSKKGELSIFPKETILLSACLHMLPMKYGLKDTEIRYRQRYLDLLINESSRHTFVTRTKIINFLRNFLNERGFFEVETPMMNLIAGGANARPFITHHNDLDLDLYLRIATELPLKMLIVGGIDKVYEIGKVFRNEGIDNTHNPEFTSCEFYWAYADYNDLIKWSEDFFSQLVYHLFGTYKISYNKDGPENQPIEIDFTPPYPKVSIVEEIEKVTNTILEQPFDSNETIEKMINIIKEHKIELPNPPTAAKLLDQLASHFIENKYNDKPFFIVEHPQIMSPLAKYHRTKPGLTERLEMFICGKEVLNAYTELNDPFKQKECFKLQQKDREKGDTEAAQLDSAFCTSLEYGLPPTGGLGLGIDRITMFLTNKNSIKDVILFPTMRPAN
UniProt P9WFT3, whole entry: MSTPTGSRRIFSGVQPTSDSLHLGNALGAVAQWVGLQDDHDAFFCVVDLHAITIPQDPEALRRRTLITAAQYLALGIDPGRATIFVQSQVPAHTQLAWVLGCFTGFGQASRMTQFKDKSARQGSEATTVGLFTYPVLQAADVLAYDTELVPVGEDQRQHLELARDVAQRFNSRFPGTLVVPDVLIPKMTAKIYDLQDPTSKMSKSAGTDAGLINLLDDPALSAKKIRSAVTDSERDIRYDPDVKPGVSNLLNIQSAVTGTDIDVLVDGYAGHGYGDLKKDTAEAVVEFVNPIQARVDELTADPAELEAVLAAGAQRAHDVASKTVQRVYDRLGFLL
UniProt I6X8D2, whole entry: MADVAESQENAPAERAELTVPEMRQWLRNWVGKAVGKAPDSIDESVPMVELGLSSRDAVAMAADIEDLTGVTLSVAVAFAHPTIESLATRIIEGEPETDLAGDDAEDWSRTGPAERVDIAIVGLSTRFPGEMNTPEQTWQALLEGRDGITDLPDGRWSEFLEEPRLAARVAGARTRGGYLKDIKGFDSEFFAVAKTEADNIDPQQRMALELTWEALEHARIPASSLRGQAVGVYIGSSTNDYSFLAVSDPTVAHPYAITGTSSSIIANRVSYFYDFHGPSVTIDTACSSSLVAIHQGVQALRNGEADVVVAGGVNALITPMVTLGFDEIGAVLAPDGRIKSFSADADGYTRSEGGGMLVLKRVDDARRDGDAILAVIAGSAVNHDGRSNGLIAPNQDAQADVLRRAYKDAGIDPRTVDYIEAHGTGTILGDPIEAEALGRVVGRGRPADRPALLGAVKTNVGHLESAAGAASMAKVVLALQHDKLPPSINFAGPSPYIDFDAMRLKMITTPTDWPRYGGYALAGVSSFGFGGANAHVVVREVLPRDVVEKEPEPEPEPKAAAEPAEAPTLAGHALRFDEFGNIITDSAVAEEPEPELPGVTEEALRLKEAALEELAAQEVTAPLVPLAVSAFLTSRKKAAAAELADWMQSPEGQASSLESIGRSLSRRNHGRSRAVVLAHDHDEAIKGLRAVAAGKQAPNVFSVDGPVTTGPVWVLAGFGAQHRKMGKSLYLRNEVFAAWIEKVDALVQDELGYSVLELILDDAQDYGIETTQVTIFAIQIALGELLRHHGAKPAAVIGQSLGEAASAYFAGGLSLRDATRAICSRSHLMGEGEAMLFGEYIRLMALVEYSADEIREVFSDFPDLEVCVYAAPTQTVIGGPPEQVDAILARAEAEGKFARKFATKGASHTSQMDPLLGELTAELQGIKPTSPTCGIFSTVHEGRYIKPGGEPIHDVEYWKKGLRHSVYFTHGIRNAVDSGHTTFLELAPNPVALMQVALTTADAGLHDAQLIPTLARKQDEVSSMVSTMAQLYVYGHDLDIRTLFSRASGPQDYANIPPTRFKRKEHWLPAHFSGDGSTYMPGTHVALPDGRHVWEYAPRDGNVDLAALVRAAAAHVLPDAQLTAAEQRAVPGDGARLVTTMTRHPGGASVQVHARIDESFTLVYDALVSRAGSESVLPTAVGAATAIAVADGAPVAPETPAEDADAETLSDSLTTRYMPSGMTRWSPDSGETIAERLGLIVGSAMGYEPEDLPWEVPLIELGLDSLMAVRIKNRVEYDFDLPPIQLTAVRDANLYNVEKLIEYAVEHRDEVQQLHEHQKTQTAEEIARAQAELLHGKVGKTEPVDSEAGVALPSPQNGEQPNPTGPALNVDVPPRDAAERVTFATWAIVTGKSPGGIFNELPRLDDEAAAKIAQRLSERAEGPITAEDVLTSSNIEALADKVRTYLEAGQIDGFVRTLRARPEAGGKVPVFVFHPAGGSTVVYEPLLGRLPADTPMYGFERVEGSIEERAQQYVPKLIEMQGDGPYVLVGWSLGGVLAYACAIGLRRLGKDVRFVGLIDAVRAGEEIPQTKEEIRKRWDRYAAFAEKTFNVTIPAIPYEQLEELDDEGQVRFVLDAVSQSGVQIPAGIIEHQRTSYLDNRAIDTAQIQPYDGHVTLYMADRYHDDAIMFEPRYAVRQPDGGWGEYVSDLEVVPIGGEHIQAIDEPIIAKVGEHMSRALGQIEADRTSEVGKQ

Values are the deposited “Percent Effect”, in %. The controls that fix the scale are not given in the record; negative values are as filed. This is an unselected part of the compounds tested. A dash means the value is not listed here; it may have been measured.

CoaBC: 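Coenzyme A biosynthesis protein CoaBC, Mycobacterium tuberculosis (UniProt P9WNZ1). Enzyme assay of CoaBC with a phosphate dye (Biomol Green) read at 650 nm. Tested at 30 µM. Direction is inferred from only a few compounds that gave an IC50; most scored high, so higher reads as stronger inhibition. Most strong results did not repeat in a second test. Size under these conditions: about 67,000 compounds, about 40 of them at 50% or above in at least one test.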
PfKRS1: 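Lysine-tRNA ligase, Plasmodium falciparum 3D7 (UniProt Q8IDJ8). Enzyme assay of the cytosolic lysyl-tRNA synthetase in 384-well plates, read by luminescence. Compounds at 30 µM. Higher reads as stronger inhibition, judged from the few compounds that gave an IC50. About 69,000 compounds were tested under these conditions; 0.071% (about 49) showed 50% or more at least once.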
Toxoplasma: 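Assay of Toxoplasma gondii numbers, read through their beta-galactosidase reporter with a colour substrate. Compounds at 10 µM. The record gives no direction; the compounds picked for IC50 retests had high values, so higher reads as fewer parasites. About 67,000 compounds were tested under these conditions; 0.38% (about 260) showed 50% or more at least once.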
MtTrpRS: 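Enzyme assay of tryptophanyl-tRNA synthetase; the read-out is not stated. Target: Tryptophan-tRNA ligase, Mycobacterium tuberculosis (UniProt P9WFT3). Tested at 10 µM. Higher most likely means stronger inhibition; the record gives no direction and few retests gave an IC50. Size under these conditions: about 65,000 compounds, about 64 of them at 50% or above in at least one test.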
Pks13 thioesterase: 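Polyketide synthase Pks13, Mycobacterium tuberculosis (UniProt I6X8D2). Enzyme assay of the thioesterase domain of polyketide synthase 13; the read-out is not stated. Compounds at 30 µM. The record gives no direction; the compounds picked for IC50 retests had high values, so higher reads as stronger inhibition. About 67,000 compounds were tested under these conditions; 0.46% (about 300) showed 50% or more at least once.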

Compound,CoaBC,PfKRS1,Toxoplasma,MtTrpRS,Pks13 thioesterase
CC(Cn1cccn1)NC(=O)c1ccsc1 (centres unmarked),4.684,6.813,-1.032,0.2719,45.56
CC(C)c1nc2c(n1C)CCN(CC(=O)Nc1ccc(Cl)cn1)C2,10.51,3.641,-0.5316,1.329,-19.81
Cn1cc(CN2CCC3(CC2)C(=O)Nc2ccccc23)cn1,4.017,7.381,-,-4.581,-29.28
Cc1cc(C)c(CNc2ncnc3ccsc23)c(=O)[nH]1,-1.446,6.341,-4.532,4.681,-4.162
Cc1nc(C)n(CC2CCCCN2Cc2nnc(C3CC3)o2)n1 (centres unmarked),1.928,0.7767,-3.388,-1.679,-11.72
CC(C)=CCCC(C)(O)c1cc(C(N)=O)no1 (centres unmarked),1.459,-0.273,9.459,0.08333,-6.37
O=C(c1cccnc1)N1CCCC(c2ccnc3nccn23)C1 (centres unmarked),4.306,-0.02847,20,7.161,-9.629
CCc1cnc(CN(C)C2CCN(CCNS(=O)(=O)CC)C2)o1 (centres unmarked),0.3444,6.656,6.215,0.7168,-14.96
CCNC(=O)N1CCC2(CC1)CCn1c(C3CC3)cnc12,-,-19.95,-0.1596,9.981,19.96
O=C(O)C(F)(F)F.O=C(O)C(F)(F)F.[H][C@@]12COC[C@]1(COCc1ccncc1)CN(CC1CCC1)C2,-,-,-11.59,-,-
C=C(C)COc1ccccc1NC(=O)N1CCOCC1CO (centres unmarked),-1.716,2.789,2.594,-1.605,-16.09
COCC(=O)NCc1cc(=O)n2c(n1)CN(CC1CC1)CCC2,0,-0.5945,-,-,17.47
O=C(O)C1(O)CCN(c2ccnc3c(C(F)(F)F)cccc23)CC1,-0.8906,-0.6644,7.879,4.009,7.556
CN(C)Cc1cn2c(n1)CN(CC1CCCC1)CC2,-8.411,6.567,-,-1.104,-29.15
Cc1ccc(CN2CCCC3(CCCN3S(C)(=O)=O)C2)s1.O=C(O)C(F)(F)F (centres unmarked),-,-,-36.42,-,-
CC(C)[C@H](NC(=O)NC1CCS(=O)(=O)C1)C(=O)Nc1cccnc1 (some centres unmarked),-0.6729,5.05,-3.706,0.603,-19.6
Cc1cc(-n2c(C)cn(CN(C)C3CCS(=O)(=O)C3)c2=O)no1 (centres unmarked),-0.4603,4.216,-3.279,-4.289,-13.3
O=C1NCCN1C(CNS(=O)(=O)C1CC1)Cc1cccc(F)c1 (centres unmarked),3.053,4.351,-24.41,5.033,-2.084
O=C(O)C(F)(F)F.[H][C@@]12CCN(c3nncs3)[C@@]1([H])CCN2C(=O)CC1CCCC1,-,-,-2.535,-,-
CCOc1ccccc1NC(=O)N(CCO)Cc1ccsc1,-3.789,2.336,-40.49,0.1434,-19.48
CCCc1cc(=O)[nH]c(-c2cccc(CN3CCN4CCCC4C3)c2)n1 (centres unmarked),-2.211,1.371,-1.522,-3.462,-13.85
Cc1cc(N2CCN(C(=O)c3cnn(C(C)C)c3)CC2)nc(N)n1,8.874,5.093,-32.97,1.771,-11.17
CC1CN(CC(=O)NCCc2ccccc2)CCN1c1nccs1 (centres unmarked),-1.75,4.05,6.615,-0.2138,-5.867
Cc1ccc(C(=O)NCCCN2CCOCC2)c(Cl)c1,3.182,3.743,3.486,3.728,-11.23
Cc1ccc(C(=O)N2CC3(CCNCC3)c3cc(Cl)ccc32)cn1.O=C(O)C(F)(F)F.O=C(O)C(F)(F)F,-,-,-32.73,-,-
CC(C)c1nccn1CCCNC(=O)c1ccc(-c2cn[nH]c2)nc1,-0.6048,2.016,0.7506,-3.835,-6.598
CN(C)C(=O)NCc1cc2n(n1)CCN(C[C@H]1[C@@H]3CNC[C@@H]31)C2,-17.27,-5.088,-,6.579,-25.09
NC(=O)[C@@H]1Cc2ccccc2CN1CCC(=O)N1CCOCC1,5.031,4.204,6.665,-0.08223,-2.425
CC(NCc1ccc(-c2ccc(Cl)cc2)o1)c1nnc2n1CCC2 (centres unmarked),-1.008,-1.627,-6.986,-7.265,-8.947
CCc1cccc(OCC(=O)NC(C)c2nnc3n2CCC3)c1 (centres unmarked),-4.854,1.799,-6.966,-5.02,-37.19
Cc1nc(-c2nnc[nH]2)sc1C(=O)N1CCCC1Cn1cccn1 (centres unmarked),-8.402,4.071,-14.61,-4.874,-5.314
O=C1CC[C@H]2CN(c3ncc(F)cn3)CC[C@H]2N1CCc1ccccc1,3.748,7.369,-,2.938,-8.128
CCc1nc(C2CCCN2Cc2cnc(C)cn2)no1 (centres unmarked),11.82,1.265,-54.4,-4.283,-18.55
Cn1ncc2c(N3CCC3)nc(-c3ccncc3)nc21,-0.7663,4.167,-3.528,-2.472,-16.03
COc1cc(CNC(C)Cn2cccn2)cc2c1OCCO2.Cl (centres unmarked),-,-,-3.919,-,-
c1ccc(-c2cnc(CN3CCCC3Cn3cncn3)o2)cc1 (centres unmarked),1.799,7.62,-,2.282,-20.91
CCCc1nnc(N[C@H](C)c2ccc(OC)cc2)o1,3.931,-0.6702,11.35,1.867,-15.77
CNC(=O)C1CCCN(c2nc(-c3ccco3)nc3c2CCNCC3)C1 (centres unmarked),-29.55,2.914,21.36,1.19,-17.08
O=C(Cc1ccc(F)c(Br)c1)NC1CCN(CC(F)F)CC1,-2.727,0.4499,-13.46,-5.062,-7.612
Cc1cc(NC(=O)NC(C)CO)ccc1OCC(F)(F)F (centres unmarked),0.8264,3.971,5.976,-0.09671,-32.75
Cc1ccc(NC(=O)[C@H]2C[C@H](C(=O)O)CN(CC(C)C)C2)cn1,-0.4938,3.33,-17.91,-6.891,-14.61
CC(Cn1ccnc1)NCc1ccc2nonc2c1 (centres unmarked),8.025,8.501,-4.899,-1.308,-36.3
O=C(Cc1ccc(F)cc1Cl)N1CC[C@H](CO)[C@@H](O)C1,-4.545,-2.093,2.781,9.574,12.26
CC(C)NC(=O)N1CCN(CC2CC2)CC2(CNC(=O)C2)C1.O=C(O)C(F)(F)F (centres unmarked),-,-,-16.87,-,-
OC(CN1CCN(Cc2cc(F)ccc2F)CC1)C1CC1 (centres unmarked),3.121,-0.07331,-,2.346,-18.19
CC(C)N1CCC(NC(=O)NCc2ccccc2)CC1,-1.297,2.489,4.071,-0.5623,-12.78
CCOCCN1CCN(Cc2nc(C3CC3)no2)CC1CC (centres unmarked),12.15,0.3593,-2.08,1.212,-14.4
Cc1cc(C)n2cc(CN3CCC(N4CCN(C)C4=O)CC3)nc2n1,1.635,4.178,-18.65,1.497,-12.93
COC(=O)CC(NC(=O)CCCn1cccn1)c1ccc(Cl)cc1 (centres unmarked),0.2457,-3.254,4.053,-1.718,3.672
Cc1ccc2oc(CN3CCC(C(=O)O)(n4ccnc4)CC3)c(C)c2c1,5.825,3.576,-7.502,-10.35,-14.93
Cc1ccc(CC(NC(=O)CCS(C)(=O)=O)c2ccccn2)cc1 (centres unmarked),-3.273,2.239,16.09,1.212,-2.507
COc1ccc(NC(=O)c2nc(C)sc2C)cn1,-1.651,-1.91,14.18,4.927,-19.95

Repeated from the top, 3 entries:

Compound	CoaBC	PfKRS1	Toxoplasma	MtTrpRS	Pks13 thioesterase
CC(Cn1cccn1)NC(=O)c1ccsc1 (centres unmarked)	4.684	6.813	-1.032	0.2719	45.56
CC(C)c1nc2c(n1C)CCN(CC(=O)Nc1ccc(Cl)cn1)C2	10.51	3.641	-0.5316	1.329	-19.81
Cn1cc(CN2CCC3(CC2)C(=O)Nc2ccccc23)cn1	4.017	7.381	-	-4.581	-29.28

The values are deposited in ChEMBL (CHEMBL3988442, “University of Dundee, Small-Polar-MMV Screening Library” (2021)).